Publication PMC8495455, “Discovery of a transdermally deliverable pentapeptide for activating AdipoR1 to promote hair growth” (EMBO Molecular Medicine, 2021)
Where a chain is given by its changes, count along the chain named. Names and notes keep the numbering of the source. No constants are given. Whether binding was seen depends on the method and setting. Binding seen in cells or lysates may run through a third protein. Some entries that bind do so weakly or less than the wild type. Tags and fused reporters may be left off the sequences shown.

T1: GST-fused mutant peptide GLYAF (human)
T1 sequence: GLYAF

T2: GST-fused P10 (NIPGL) (human)
T2 sequence: NIPGL

T3: GST-fused mutant peptide GLYDF (human)
T3 sequence: GLYDF

T4: GST-fused P5 (GLYYF) (human)
T4 sequence: GLYYF

B1: Flag-fused N-terminal-truncated AdipoR1 (residues 89-375) (domain or fragment, UniProt Q96A54 89-375)
chain: EGRWRVIPYDVLPDWLKDNDYLLHGHRPPMPSFRACFKSIFRIHTETGNIWTHLLGFVLFLFLGILTMLRPNMYFMAPLQEKVVFGMFFLGAVLCLSFSWLFHTVYCHSEKVSRTFSKLDYSGIALLIMGSFVPWLYYSFYCSPQPRLIYLSIVCVLGISAIIVAQWDRFATPKHRQTRAGVFLGLGLSGVVPTMHFTIAEGFVKATTVGQMGWFFLMAVMYITGAGLYAARIPERFFPGKFDIWFQSHQIFHVLVVAAAFVHFYGVSNLQEFRYGLEGGCTDDTLL
B2: Flag-fused full-length AdipoR1 (residues 1-375) (receptor, UniProt Q96A54 1-375)
chain: MSSHKGSVVAQGNGAPASNREADTVELAELGPLLEEKGKRVIANPPKAEEEQTCPVPQEEEEEVRVLTLPLQAHHAMEKMEEFVYKVWEGRWRVIPYDVLPDWLKDNDYLLHGHRPPMPSFRACFKSIFRIHTETGNIWTHLLGFVLFLFLGILTMLRPNMYFMAPLQEKVVFGMFFLGAVLCLSFSWLFHTVYCHSEKVSRTFSKLDYSGIALLIMGSFVPWLYYSFYCSPQPRLIYLSIVCVLGISAIIVAQWDRFATPKHRQTRAGVFLGLGLSGVVPTMHFTIAEGFVKATTVGQMGWFFLMAVMYITGAGLYAARIPERFFPGKFDIWFQSHQIFHVLVVAAAFVHFYGVSNLQEFRYGLEGGCTDDTLL
B3: Flag-fused AdipoR1 (residues 89-375) F361A (domain or fragment, UniProt Q96A54 89-375)
chain: B1 chain with F273A
B4: Flag-fused AdipoR1 (residues 89-375) F285Y (domain or fragment, UniProt Q96A54 89-375)
chain: B1 chain with F197Y
B5: Flag-fused AdipoR1 (residues 89-375) Y229A (domain or fragment, UniProt Q96A54 89-375)
chain: B1 chain with Y141A
B6: Flag-fused AdipoR1 (residues 89-375) R362E (domain or fragment, UniProt Q96A54 89-375)
chain: B1 chain with R274E
B7: Flag-fused AdipoR1 (residues 89-375) F285A/F361A (domain or fragment, UniProt Q96A54 89-375)
chain: B1 chain with F197A, F273A
B8: Flag-fused AdipoR1 (residues 89-375) F285K (domain or fragment, UniProt Q96A54 89-375)
chain: B1 chain with F197K
B9: Flag-fused AdipoR1 (residues 89-375) R362A (domain or fragment, UniProt Q96A54 89-375)
chain: B1 chain with R274A
B10: Flag-fused AdipoR1 (residues 89-375) E289R (domain or fragment, UniProt Q96A54 89-375)
chain: B1 chain with E201R
B11: Flag-fused AdipoR1 (residues 89-375) E366R (domain or fragment, UniProt Q96A54 89-375)
chain: B1 chain with E278R

biological target: T1, GST-fused mutant peptide GLYAF (human); experiment: pull-down; purified GST-fused peptide on glutathione-Sepharose beads, mixed with lysate of HEK293T cells expressing Flag-AdipoR1, 4°C overnight; washed with PBST, eluted with 20 mM glutathione; Western blot with Flag and GST antibodies; only the target purified

Row | binding | Binder
1 | binds | B1

biological target: T2, GST-fused P10 (NIPGL) (human); experiment: as above

Row | binding | Binder
2 | no binding | B2

biological target: T3, GST-fused mutant peptide GLYDF (human); experiment: as above

Row | binding | Binder
3 | binds | B1

biological target: T4, GST-fused P5 (GLYYF) (human); experiment: as above

Row | binding | Binder
4 | binds | B2
5 | binds | B3
6 | binds | B1
7 | binds | B4
8 | binds | B5
9 | binds | B6
10 | binds | B7
11 | binds | B8
12 | binds | B9
13 | binds | B10
14 | binds | B11
